Structures can show the parent of a compound that is named as a salt. Where two headings read alike, the source gives them in different places. Hit rate of the full screen: of about 3,300 compounds, about 60 (2%) showed an effect of 50% or more. Some of the results follow. Peptide text beside a SMILES is read from it.

For the experiment, the system named is HCoV-OC43. Further details: species or system RD; HTS, protection from HCoV-OC43 induced cell death, luminescent cell viability (CellCounting-Lite 2.0), inhibition rate. As to conditions: 24 h post infection, 1 h compound pre-incubation, 10 µM, inhibitor.

Regarding `COc1ccc2c(C)cc(=O)oc2c1O` [7-Methoxy-4-methyl-coumarin-8-ol], the “OC43 Inhibition rate” value is reported as -0.7%.

Turning to `CC1(C)Oc2cc3oc(=O)ccc3cc2C[C@@H]1O` [Decursinol], the “OC43 Inhibition rate” value is on record as -0.4%.

On to `CC(C)=CCc1c(O)cc2c(c1O)C(=O)C[C@@H](c1ccc(O)cc1)O2` [(2S)-6-Prenylnaringenin], for which the “OC43 Inhibition rate” value was found to be 54.9%.

With `O=C[C@@H](O)[C@H](O)[C@@H](O)CO` [L-Xylose], the “OC43 Inhibition rate” value came to 0.3%.

For the compound `O=c1cc(-c2ccc(O)cc2)oc2c([C@@H]3O[C@H](CO)[C@@H](O[C@@H]4O[C@H](CO)[C@@H](O)[C@H](O)[C@H]4O)[C@H](O)[C@H]3O)c(O)cc(O)c12` [4”-O-Glucosylvitexin], the “OC43 Inhibition rate” value turned out to be 0.3%.

On to `O=C(O)c1ccccc1C(=O)O` [Phthalic acid], for which the “OC43 Inhibition rate” value is recorded as -0.3%.

On to `COC(=O)C1=CO[C@@H](O)[C@@H]2[C@@H](C)[C@@H](O)C[C@H]12` [Loganetin], for which the “OC43 Inhibition rate” value is listed as -0.7%.

Regarding `O=C(O)c1cc(O)c2c(c1)C(=O)c1cccc(O)c1C2=O` [Rhein], the “OC43 Inhibition rate” value was -0.1%.

In the case of `CCCCCCCCCCCCCCCC(=O)OC` [Methyl palmitate], the “OC43 Inhibition rate” value is listed as -0.3%.

With `CCC12C=CCN3CC[C@@]4(c5ccc(OC)cc5N(C)[C@H]4[C@@](O)(C(=O)OC)[C@@H]1OC(C)=O)[C@@H]32` (stereo partly shown) [Vindoline], the “OC43 Inhibition rate” value is on record as -0.2%.

With `CC1=C[C@H]2[C@@H](CC1)[C@H](C)CC[C@H]2[C@@H](C)C(=O)O` [Dihydroartemisinic acid], the “OC43 Inhibition rate” value is reported as 5.6%.

As for `C[C@H]1CC[C@@]2(O)C(C)(C)[C@@H]3CC[C@@]2(C)[C@H]1C3` [Patchouli alcohol], the “OC43 Inhibition rate” value turned out to be 0.2%.

Regarding `CC1(C)C(=O)[C@]2(C)CC[C@H]1C2` [(-)-Fenchone], the “OC43 Inhibition rate” value was found to be 1.9%.

Consider `Oc1ccc([C@H]2COc3cc(O)ccc3C2)cc1` [(-)-(S)-Equol], for which the “OC43 Inhibition rate” value is given as -0.2%.

Consider `C[C@H]1CCC/C=C/[C@@H]2C[C@H](O)C[C@H]2[C@H](O)/C=C/C(=O)O1` [Brefeldin A], for which the “OC43 Inhibition rate” value is on record as 20%.

Consider `CC(C)[C@H](NC(=O)CN)C(=O)O` [Glycyl-L-valine] (H-Gly-Val-OH), for which the “OC43 Inhibition rate” value is reported as 0.2%.

Regarding `C=C1C(=O)O[C@@H]2/C=C(\C)CC/C=C(\C)CC[C@@H]12` [Costunolide], the “OC43 Inhibition rate” value is given as 13.7%.

Regarding `C[C@]12CC[C@H]3[C@@H](CC=C4C[C@@H](O)CC[C@@]43C)[C@@H]1CC[C@@H]2C(=O)CO` [21-Hydroxypregnenolone], the “OC43 Inhibition rate” value is -0.2%.

In the case of `CC(=O)c1ccccc1N` [2'-Aminoacetophenone], the “OC43 Inhibition rate” value is reported as -0.3%.

On to `CCCCCCCCCCCCC` [Tridecane], for which the “OC43 Inhibition rate” value is given as -3.8%.

Take `Oc1ccc2c(c1)OCO2` [Sesamol]: the “OC43 Inhibition rate” value was -0.8%.

In the case of `CO[C@H]1c2cc(C(C)C)c(O)c(O)c2[C@@]23CCCC(C)(C)[C@@H]2[C@@H]1OC3=O` [7-Methoxyrosmanol], the “OC43 Inhibition rate” value amounted to 0.5%.

For `OC1OC[C@@H](O[C@@H]2OC[C@@H](O[C@@H]3OC[C@@H](O[C@@H]4OC[C@@H](O)[C@H](O)[C@H]4O)[C@H](O)[C@H]3O)[C@H](O)[C@H]2O)[C@H](O)[C@H]1O` (stereo partly shown) [Xylotetraose], the “OC43 Inhibition rate” value turned out to be 27.7%.

In the case of `c1ccc2c(Cc3c[nH]c4ccccc34)c[nH]c2c1` [3,3'-Diindolylmethane], the “OC43 Inhibition rate” value was -0.2%.

For `COc1c2ccoc2c(OCC=C(C)C)c2oc(=O)ccc12` [Phellopterin], the “OC43 Inhibition rate” value is 21.3%.

For the compound `CC1(C)CC[C@]2(C(=O)O)CCC3=C([C@@H](CCl)C[C@@H]4[C@@]5(C)C[C@H](O)[C@H](O)[C@@](C)(C(=O)O)[C@@H]5CC[C@@]34C)[C@@H]2C1` [Tenuigenin], the “OC43 Inhibition rate” value is listed as -0.4%.

With `CC(=O)c1ccc(O)cc1` [4-Hydroxyacetophenone], the “OC43 Inhibition rate” value is -0.2%.

With `COC(=O)c1cccnc1` [Methyl nicotinate], the “OC43 Inhibition rate” value turned out to be 3.2%.

On to `CC(=O)C1=C(O)C=C2Oc3c(C(C)=O)c(O)c(C)c(O)c3[C@@]2(C)C1=O` [(+)-Usnic acid], for which the “OC43 Inhibition rate” value is recorded as -1.4%.

Regarding `O=C(CCc1ccc(O)cc1)c1c(O)cc(O)cc1O[C@@H]1O[C@H](CO)[C@@H](O)[C@H](O)[C@H]1O` [Phlorizin], the “OC43 Inhibition rate” value was -0.2%.

As for `C[C@]12CCC(=O)C=C1CC[C@@H]1[C@@H]2[C@@H](O)C[C@@]2(C)[C@H]1CC[C@]2(O)C(=O)CO` [Hydrocortisone], the “OC43 Inhibition rate” value was -0.1%.

Take `CC[C@@H](C)O` [(R)-(-)-2-Butanol]: the “OC43 Inhibition rate” value is 0.1%.

As for `O=C(O)CC(O)C(=O)O` (stereo not shown) [Malic acid], the “OC43 Inhibition rate” value is 0.1%.

Regarding `Nc1cc[nH]c(=O)n1` [Cytosine], the “OC43 Inhibition rate” value was -0.2%.

`C[C@H](CCC(=O)O)[C@H]1CC[C@H]2[C@@H]3CC=C4C[C@@H](O)CC[C@]4(C)[C@H]3CC[C@]12C` [3b-Hydroxy-5-cholenoic acid]: the “OC43 Inhibition rate” value is listed as 1.7%.

With `COc1cc(O)c2c(c1)oc(=O)c1c3cc(O)c(O)cc3oc21` [Wedelolactone], the “OC43 Inhibition rate” value stood at 2.9%.

Consider `C[C@@H]1C[C@H]2CC3=C(CCC(=O)N3)[C@@]3(C1)[C@@H]2CCCN3C` [α-Obscurine], for which the “OC43 Inhibition rate” value is reported as -0.2%.

In the case of `Cn1cncc1C[C@H](NC(=O)CCN)C(=O)O` [Anserine], the “OC43 Inhibition rate” value (OC43 Inhibition rate, 24 h) was 5%.

As to `O=Cc1c[nH]c2ccccc12` [Indole-3-carboxaldehyde], the “OC43 Inhibition rate” value came out at 2.9%.

Take `CC1(C)[C@@H]2CC[C@@]1(C)C(=O)C2` [(+)-Camphor]: the “OC43 Inhibition rate” value is listed as -0.2%.

`COc1ccc(-c2cc(=O)c3c(O)cc(O)c(-c4cc(-c5cc(=O)c6c(O)cc(O)cc6o5)ccc4OC)c3o2)cc1` [Isoginkgetin]: the “OC43 Inhibition rate” value was determined as 23.2%.

`CCCCC(CC)COC(=O)c1ccccc1C(=O)O` (stereo not shown) [Phthalic acid mono-2-ethylhexyl ester]: the “OC43 Inhibition rate” value is reported as 3.2%.

As to `C[C@]1(OC(=O)/C=C/c2ccccc2)C[C@@H](O)[C@]2(O)C=CO[C@@H](O[C@@H]3O[C@H](CO)[C@@H](O)[C@H](O)[C@H]3O)[C@@H]21` [Harpagoside], the “OC43 Inhibition rate” value was -0.7%.

With `COc1cc2cc(Oc3ccc4ccc(=O)oc4c3)c(=O)oc2cc1O` [Daphnoretin], the “OC43 Inhibition rate” value was -0.1%.

With `COc1c2cc3c(c1OC)CCN(C)[C@@H]3Cc1ccc(cc1)Oc1cc3c(c(OC)c1OC)CCN(C)[C@@H]3Cc1ccc(cc1)O2` [Cycleanine], the “OC43 Inhibition rate” value stood at 7.5%.

As to `COc1ccc(O)cc1OC` [3,4-Dimethoxyphenol], the “OC43 Inhibition rate” value amounted to 2.5%.

For `c1ccc2c(c1)cc1ccc3cccc4ccc2c1c34` [Benzo[a]pyrene], the “OC43 Inhibition rate” value worked out at 14.9%.

Turning to `COc1c2ccoc2c(OC)c2oc(=O)ccc12` [Isopimpinellin], the “OC43 Inhibition rate” value was 2.4%.

Turning to `CC(C)NCC(O)COc1cccc2ccccc12` (stereo not shown) [Propranolol (hydrochloride)], the “OC43 Inhibition rate” value (OC43 Inhibition rate, 24 h) was determined as 0.3%.

As to `COc1ccc([C@@H]2CC(=O)c3c(O)cc(O[C@@H]4O[C@H](CO[C@@H]5O[C@@H](C)[C@H](O)[C@@H](O)[C@H]5O)[C@@H](O)[C@H](O)[C@H]4O)cc3O2)cc1O` [Hesperidin], the “OC43 Inhibition rate” value is -0.1%.

As to `COC(=O)[C@@H](Cc1ccc(O)c(O)c1)OC(=O)/C=C/c1ccc(O)c(O)c1` [Methyl rosmarinate], the “OC43 Inhibition rate” value was found to be 6.3%.

With `O=C(/C=C/c1ccc(O)c(O)c1)OC[C@H]1O[C@@H](OCCc2ccc(O)c(O)c2)[C@H](O)[C@@H](O)[C@@H]1O` [Calceolarioside B], the “OC43 Inhibition rate” value is recorded as 4.7%.

As to `COc1ccc2cc3n(c(=O)c2c1OC)CCc1cc2c(cc1-3)OCO2` [Oxyberberine], the “OC43 Inhibition rate” value worked out at 58.7%.

Turning to `C=C1C(=O)[C@@]23[C@@H]4OC5O[C@@]2(O)[C@@H](O)[C@@H]2C(C)(C)CC[C@@H](O)[C@]52[C@@H]3CC[C@@H]14` [ponicidin], the “OC43 Inhibition rate” value was 75.9%.

Take `CCC(C)c1nccnc1OC` (stereo not shown) [2-Sec-butyl-3-methoxypyrazine]: the “OC43 Inhibition rate” value is recorded as -0.4%.

For `C[C@@H]1O[C@@H](O[C@H]2[C@H](OC(=O)[C@]34CCC(C)(C)C[C@H]3C3=CC[C@@H]5[C@@]6(C)C[C@H](O)[C@H](O[C@@H]7O[C@H](CO)[C@@H](O)[C@H](O[C@@H]8O[C@H](CO)[C@@H](O)[C@H](O)[C@H]8O)[C@H]7O)C(CO)(CO)[C@@H]6CC[C@@]5(C)[C@]3(C)C[C@H]4O)OC[C@H](O)[C@@H]2O)[C@H](O)[C@H](O)[C@H]1O[C@@H]1OC[C@@H](O)[C@H](O[C@@H]2OC[C@](O)(CO)[C@H]2O)[C@H]1O` [Platycodin D2], the “OC43 Inhibition rate” value is 15.9%.

On to `CN1CCc2cc3c(cc2C1O)OCO3` (stereo not shown) [Hydrastinine], for which the “OC43 Inhibition rate” value (OC43 Inhibition rate, 24 h) is on record as -0.3%.

For the compound `CCCCCCCCCCCCCCC(=O)OC` [Methyl pentadecanoate], the “OC43 Inhibition rate” value is reported as -1.9%.

As to `Cc1c(C)c2c(c(C)c1O)CC[C@@](C)(CCCC(C)CCCC(C)CCCC(C)C)O2` (stereo in doubt) [rel-α-Vitamin E], the “OC43 Inhibition rate” value came to 5.5%.

Take `O=C(O)c1cccc(O)c1O` [Pyrocatechuic acid]: the “OC43 Inhibition rate” value came out at 1.9%.

Regarding `O=c1ccc2ccc(O)cc2o1` [Umbelliferone], the “OC43 Inhibition rate” value is reported as -0.3%.

`C=C1C(=O)O[C@@H]2/C=C(/C)[C@@H](OC(C)=O)C/C=C(/C=O)C[C@@H](OC(=O)/C(C)=C/CO)[C@@H]12` [Eupalinolide O]: the “OC43 Inhibition rate” value amounted to 2.5%.

With `COc1cc2c(cc1OC)[C@@H]1Cc3ccc(OC)c(OC)c3CN1CC2` [Tetrahydropalmatine (hydrochloride)], the “OC43 Inhibition rate” value (OC43 Inhibition rate, 24 h) was determined as 0%.

Regarding `O=c1[nH]cnc2c1ncn2[C@@H]1O[C@H](COP(=O)(O)OP(=O)(O)OP(=O)(O)O)[C@@H](O)[C@H]1O` [Inosine-5'-triphosphate (trisodium salt)], the “OC43 Inhibition rate” value was -2.1%.

`CC(C)=CCC1=CC(=O)c2ccccc2C1=O` [Deoxylapachol]: the “OC43 Inhibition rate” value is 3.8%.

As for `O=C(O)c1cccc2nc3ccccc3nc12` [Phenazine-1-carboxylic acid], the “OC43 Inhibition rate” value turned out to be 1.9%.

On to `Nc1nc2c(ncn2[C@@H]2O[C@H](CO)[C@@H](O)[C@H]2O)c(=O)[nH]1` [Guanosine], for which the “OC43 Inhibition rate” value was -0.2%.

These data come from PMC12431657, “Discovery and mechanistic insights of dibenzoylmethane as a broad spectrum inhibitor of coronavirus” (PLOS Pathogens, 2025).
